PubChem BioAssay AID1671195, Yale University, 2021
Aim: 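Genes whose knockdown alters LDL uptake in liver cancer cells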 (primary screen). Cells: human Huh7 hepatoma cells. Reagents: siRNA pool against human genes, 18 nM. Duration: about 2 to 2.5 days of knockdown, then 8 h LDL uptake. Challenge: DiI-labelled LDL at 30 µg/ml for 8 h, in lipoprotein-deficient serum medium. Measurement: 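Fluorescent LDL signal imaged in cells, scaled to the plate median, robust z-score for each replicate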. Direction: robust z-score: higher = more LDL uptake after knockdown. Call rule: 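a gene counts as active if at least two replicate z-scores exceed ±2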.
This is a random part of about 22,000 deposited reagents. In the full data, about 1,510 (6.9%) got an active call. 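Active includes knockdowns raising or lowering LDL uptake; positive z-scores mean more uptake, negative mean less.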 A number with no mark means an inactive call.

robust z-score, replicate 1	robust z-score, replicate 2	robust z-score, replicate 3	target
1.57	1.77	1.43	SNRNP70
-1.38	-2.02	6.22	DPY19L1
0.868	0.276	-0.482	ICAM4
-0.303	-0.848	-0.797	AANAT
-0.302	-0.132	0.0473	OR7E31P
-0.487	-0.429	0.616	NUP188
-0.514	-1.21	-0.836	TRAF4
-0.744	-1.66	-1.62	TDRD12
1.58	1.12	1.27	LOC391727 (retired record)
-1.32	-0.229	-1.04	TMTC4
1.92 (active)	2.07	-0.2	SFRP4
-0.486	-0.956	-1.09	LOC391373 (retired record)
-0.186	0.982	0.807	IFT70A
-0.638	-0.914	-1.17	COL11A2
0.46	0.827	0.69	C5orf15
2.21	0.592	1.62	UBE2O
-1.8	-1.37	-1.51	SLAMF9
-0.159	0.409	0.568	ODAD3
-0.719	-1.73	-1.32	NPBWR2
-0.139	0.0698	0.403	APOBEC3H
0.334	0.245	0.000324	LOC441497 (retired record)
-0.111	0.349	0.117	OR4S1
0.803	-1.88	0.157	LOC401616 (retired record)
-0.688	1.13	-1.43	DDIT4
0.155	-0.86	0.141	GABRB3
0.408	0.317	1.24	LOC442350 (retired record)
1.62	1.1	0.87	FOSB
1.19	1.68	1.57	PTDSS2
